This is one part of the list. The main result of the screen is listed elsewhere. These columns were measured beside it and carry no call. The list favours compounds with an active or inconclusive main result. Words in brackets tell the shape of the fitted curve; partial curves, single points and poor fits give uncertain potencies.
Assay: qHTS Assay to Find Inhibitors of Chronic Active B-Cell Receptor Signaling
Conditions: ABC-DLBCL IkBa-CBG/CBR reporter, luminescence ratio (green luciferase fused to IkBa over red control in TMD8 lymphoma cells), 4 h
Procedure, shortened: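 Compounds up to 46 uM were incubated four hours with TMD8 cells whose green CBG68 luciferase is fused to IkappaBalpha; red CBR luminescence normalised the signal, and concentration-effect curves were fitted to fusion, red and ratio data.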

[1] = measured here: CBR red luminescence, cell number
[2] = measured here: IkBa-CBG green luminescence

| Structure (SMILES) | AC50 [1] | AC50 [2] |
| --- | --- | --- |
| CSc1nnc(C)c(=O)n1COC(=O)c1cc(Cl)ccc1[N+](=O)[O-] | 35.5 µM [falling, single point] | – |
| NC(=O)c1c(/N=C/c2cccnc2)sc2c1CCCC2 | 0.112 µM [rising, full curve, poor fit] | – |
| Cc1ccc(Cn2cc(C(=O)NN)c(=O)c3ccc(F)cc32)cc1 | – | 35.5 µM [falling, single point] |
| O=C(NCCN1C(=O)C2C3C=CC(C3)C2C1=O)Nc1cccnc1 (centres undefined) | 3.26 µM [rising, single point] | – |
| N#CC(C(=O)c1ccccc1)=C1SCCS1 | 3.98 µM [rising, partial curve, poor fit] | 6.31 µM [falling, single point] |
| Cc1ccc(N(CC(=O)NC(C)(C)C)C(=O)CCC(=O)Nc2nccs2)c(C)c1 | 35.5 µM [falling, single point] | – |
| CCN(CC)S(=O)(=O)c1ccc(N2CCCC2)c(NC(=O)C2CCCCC2)c1 | 6.31 µM [rising, single point] | – |
| CC(=O)N1CCN(c2ccc(NC(=O)c3ccc(Cl)cc3)cc2)CC1 | 35.5 µM [rising, single point] | – |
| COC(=O)c1ccc(NC(=O)CSc2nccn2CCc2ccccc2)cc1 | 29.1 µM [rising, single point] | – |
| CC(NC(=O)c1cccs1)c1nnc(SCc2ccc(Cl)cc2Cl)n1C (centres undefined) | 7.31 µM [falling, partial curve, poor fit] | – |
| O=C(COC(=O)c1cc([N+](=O)[O-])ccc1N1CCOCC1)c1ccc(F)cc1 | 23.1 µM [rising, single point] | – |
| N#Cc1cc(-c2ccccc2)oc1/N=C/c1ccccc1O | 20.6 µM [falling, partial curve, poor fit] | – |
| Cc1ccc(-c2noc(C3CCCN(C(=O)c4ccc(C(C)(C)C)cc4)C3)n2)o1 (centres undefined) | 6.31 µM [rising, single point] | – |
| CCn1c(CNc2ccccc2Cl)nnc1SCC(=O)NCc1ccccc1 | 17.8 µM [rising, partial curve, poor fit] | – |
| FC(F)(F)c1cccc(CN2CCC(c3cc(-c4cccs4)n[nH]3)CC2)c1 | 11.2 µM [rising, partial curve, poor fit] | 17.8 µM [falling, single point] |
| CC(=O)Nc1ccc(S(=O)(=O)N2CCN(Cc3ccncc3)CC2)cc1 | 29.1 µM [rising, single point] | – |
| CCOc1ccccc1CNS(=O)(=O)c1ccc(-c2cnc(C3CC3)o2)cc1 | 31.6 µM [rising, single point] | 12.6 µM [falling, partial curve] |
| COc1ccc(-n2c(C)nc3c(cnn3-c3ccc(C)cc3)c2=O)cc1 | 12.6 µM [rising, partial curve, poor fit] | – |
| CC(=O)N1CCC2(CC1)C/C(=N\NC(=S)Nc1ccccc1C)c1cc(O)ccc1O2 | 22.4 µM [falling, single point] | – |
| CCc1c(C(=O)N/N=C/c2ccsc2)csc1C | 2.59 µM [rising, full curve] | – |

| Structure (SMILES) | AC50 [1] | AC50 [2] |
| --- | --- | --- |
| CC(=O)c1c(C)[nH]c(C(=O)N2c3ccccc3CC2C)c1C (centres undefined) | 17.8 µM [rising, partial curve, poor fit] | – |
| Cc1cc(=O)c(C(=O)Nc2cccc(C(=O)NC3CC3)c2)nn1-c1ccccc1Cl | 7.31 µM [rising, partial curve, poor fit] | – |
| CCOc1cc(C2CC(=O)Nc3cc(C)c(C)cc32)ccc1O (centres undefined) | 35.5 µM [falling, single point] | – |
| CC1CCCC(C)N1S(=O)(=O)c1ccc(NC(=O)CNCC2CCCO2)cc1 (centres undefined) | 3.55 µM [falling, partial curve, poor fit] | – |
| Cc1ccsc1/C=N/NC(=O)c1ccco1 | 29.1 µM [falling, single point] | – |
| Cc1cc(C(=O)Cn2nc(C(=O)O)c3ccccc3c2=O)c(C)n1-c1ccc(OC(F)F)cc1 | 15.8 µM [falling, single point] | – |
| O=C(Nc1ccc(Cl)c(Cl)c1)N1CCSCC1 | 20.6 µM [falling, single point] | – |
| CCC(=O)c1ccc(N2CCN(S(=O)(=O)c3ccccc3)CC2)c(F)c1 | 1.41 µM [rising, full curve] | – |
| Oc1ccc2ccccc2c1CNc1cnc2ccccc2c1 | 11.6 µM [falling, partial curve] | – |
| O=C(CNC(=O)c1ccc(Br)o1)Nc1cccc(S(=O)(=O)N2CCOCC2)c1 | 29.1 µM [falling, single point] | – |
| CCOc1ccccc1N(C(=O)Nc1ccc(Cl)cc1)C1=NC(C)CS1 (centres undefined) | 2.06 µM [rising, partial curve] | – |
| Clc1ccc(C(c2nnnn2CCc2ccccc2)N2CCSCC2)cc1 (centres undefined) | 6.51 µM [falling, full curve, poor fit] | – |
| CC(C)[C@@H](N)C(=O)N/N=C/c1ccc2ncccc2c1 | 11.2 µM [falling, single point] | – |
| CCn1c(O)c(N=NC(=O)CNC(=O)/C=C/c2ccccc2)c2ccccc21 | 14.1 µM [rising, single point] | – |
| CCC1(c2ccc(Cl)cc2)NC(=S)N(c2ccc(C)c(C)c2)N1 (centres undefined) | 10 µM [rising, partial curve, poor fit] | – |
| O=C(C1=C[C@@H](c2csc3ccccc23)C[C@@H](OCc2ccc(CO)cc2)O1)N1CCN(Cc2ccc3c(c2)OCO3)CC1 | 31.6 µM [falling, single point] | – |
| COc1ccc(C=C2c3ccccc3C(=O)c3ccccc32)c(OC)c1 | 10 µM [rising, partial curve] | 8.91 µM [falling, partial curve] |
| Nc1nonc1-c1nc2ccccc2[nH]1 | 29.1 µM [falling, single point] | – |
| COc1ccccc1Nc1ccc(NS(=O)(=O)c2ccc(C(C)=O)cc2)cc1 | 10 µM [falling, single point] | – |
| CCCn1c(=O)c(C(=O)NC(C)c2ccccc2)c(O)c2ccccc21 (centres undefined) | 3.16 µM [rising, full curve, poor fit] | – |

Of the compounds above, 2 have a cyano group.

| Structure (SMILES) | AC50 [1] | AC50 [2] |
| --- | --- | --- |
| N#CC(C(=O)c1ccccc1)=C1SCCS1 | 3.98 µM [rising, partial curve, poor fit] | 6.31 µM [falling, single point] |
| N#Cc1cc(-c2ccccc2)oc1/N=C/c1ccccc1O | 20.6 µM [falling, partial curve, poor fit] | – |
